# Results are given in words; binding and its absence hold for the method and conditions named. Some results given as binding are weak or reduced against the parent protein; the word gives no strength.
# B1: human CEACAM1 IgV domain, I91A mutant (domain or fragment)
# chain: QLTTESMPFNVAEGKEVLLLVHNLPQQLFGYSWYKGERVDGNRQIVGYAIGTQQATPGPANSGRETIYPNASLLIQNVTQNDTGFYTLQVAKSDLVNEEATGQFHVY
# notes: unglycosylated
# B2: human CEACAM1 IgV domain, wildtype (domain or fragment)
# chain: AQLTTESMPFNVAEGKEVLLLVHNLPQQLFGYSWYKGERVDGNRQIVGYAIGTQQATPGPANSGRETIYPNASLLIQNVTQNDTGFYTLQVIKSDLVNEEATGQFHVY
# notes: Carcinoembryonic antigen-related cell adhesion molecule 1 (CEACAM1), human, N-terminal IgV domain; NMR samples were 15N/13C or 15N/13C/2H labelled; also called hCEACAM1 WT IgV; WT; source: isotope-labelled samples expressed from E. coli in M9 minimal medium, purified
# Columns and labels:
# [1] = target: human CEACAM1 IgV domain, I91A mutant (human) (UniProt P13688); test: SEC-MALS; samples at 100 μM injected onto TSK-gel Bioassist G4SWxl, 10 mM HEPES pH 7.4, 150 mM, 0.5 mL/min; self-association, monomer to dimer; both purified
# [2] = target: human CEACAM1 IgV domain, wildtype (human) (UniProt P13688); test: NMR titration; 15N-HSQC spectra at varying protein concentration (N97A 16-500 μM; WT 10 μM and 1 mM); 10 mM HEPES, 50 mM NaCl, pH 7.0, 25 °C; dimer to monomers; rough estimate from peak trajectories of Q44 and A49; both purified
Binder,binding [1],binding [2]
B1,binds weakly,–
B2,–,binds

# Source: PMC7979749, “Structural basis of the dynamic human CEACAM1 monomer-dimer equilibrium” (Communications Biology, 2021)
